PubChem BioAssay AID1159584 – Peter MacCallum Cancer Centre | 2016

Test: 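Knock-downs that harm CDH1-null cells more than parental MCF10A cells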 (primary screen)
Cell system: human MCF10A breast epithelial cells, parental and CDH1-null
Reagents: siRNA against human genes
Detection: 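ATP luminescence (CellTiter-Glo) viability per line relative to mean mock wells over all plates, and the ratio of CDH1-null to parental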
Direction: CDH1-null / parental viability ratio: higher = CDH1-null cells survive relatively better than parental; CDH1-null viability vs mock: higher = more viable CDH1-null cells; parental viability vs mock: higher = more viable parental cells
Here is one part, drawn at random, of about 18,000 reagents. Not stated in the record: the amount of reagent, the time to read-out.

Target gene	CDH1-null / parental viability ratio	CDH1-null viability vs mock (fraction of mock)	parental viability vs mock (fraction of mock)
TUBG1 (tubulin gamma 1)	0.77	0.68	0.88
GRXCR2 (glutaredoxin and cysteine rich domain containing 2)	1.11	0.99	0.89
GARIN1A (golgi associated RAB2 interactor 1A)	1.47	1	0.68
EPS8L1 (EPS8 signaling adaptor L1)	1	0.64	0.64
ZNF488 (zinc finger protein 488)	1.29	0.9	0.7
TAGAP (T cell activation RhoGTPase activating protein)	1.39	0.64	0.46
NOL4L (nucleolar protein 4 like)	1.31	0.94	0.72
PPFIBP2 (PPFIB scaffold protein 2)	1.26	0.91	0.72
ZNF276 (zinc finger protein 276)	1.02	0.56	0.55
LAP3 (leucine aminopeptidase 3)	1.18	0.85	0.72
MIA3 (MIA SH3 domain ER export factor 3)	0.92	0.68	0.74
C4BPB (complement component 4 binding protein beta)	1.19	0.86	0.72
FHIP1B (FHF complex subunit HOOK interacting protein 1B)	0.66	0.39	0.59
PPAN-P2RY11 (PPAN-P2RY11 readthrough)	0.94	0.58	0.62
APPL1	1.42	0.68	0.48
CEP43 (centrosomal protein 43)	1.16	1	0.86
PGBDF (plakoglobin binding and degradation factor)	0.94	0.62	0.66
RB1 (RB transcriptional corepressor 1)	0.91	1	1.1
CYB561D2 (cytochrome b561 family member D2)	0.75	0.45	0.6
ARHGEF16 (Rho guanine nucleotide exchange factor 16)	0.92	0.6	0.65
PDE4C (phosphodiesterase 4C)	0.83	0.68	0.82
ZNF175 (zinc finger protein 175)	1.12	1.23	1.1
METRN (meteorin, glial cell differentiation regulator)	1.22	0.78	0.64
MNAT1 (MNAT1 component of CDK activating kinase)	0.84	0.89	1.06
ATXN2 (ataxin 2)	1.15	1.01	0.88
AMMECR1 (AMMECR nuclear protein 1)	1.15	1.06	0.92
KRTAP12-3 (keratin associated protein 12-3)	1.04	1.06	1.02
NT5C3B (5'-nucleotidase, cytosolic IIIB)	0.94	0.34	0.36
PITPNM2 (phosphatidylinositol transfer protein membrane associated 2)	1.04	0.86	0.83
HMGA2 (high mobility group AT-hook 2)	0.9	0.6	0.67
RAB31 (RAB31, member RAS oncogene family)	1	0.86	0.86
BOD1L1 (biorientation of chromosomes in cell division 1 like 1)	0.85	0.7	0.82
NIN (ninein)	1.09	0.96	0.88
PSG1 (pregnancy specific beta-1-glycoprotein 1)	1.08	1.04	0.96
TMEM260 (transmembrane protein 260)	1.33	0.72	0.54
WSB1 (WD repeat and SOCS box containing 1)	0.89	0.73	0.82
JMY (junction mediating and regulatory protein, p53 cofactor)	0.86	0.88	1.02
STAT6 (signal transducer and activator of transcription 6)	1.04	0.84	0.81
ANO10 (anoctamin 10)	1.17	0.77	0.66
SNRPG (small nuclear ribonucleoprotein polypeptide G)	1	0.4	0.4
FHIT (fragile histidine triad diadenosine triphosphatase)	0.86	0.72	0.84
CARD19 (caspase recruitment domain family member 19)	0.75	0.75	1
COQ6 (coenzyme Q6, monooxygenase)	0.97	0.87	0.9
RAB7B (RAB7B, member RAS oncogene family)	1.08	0.84	0.78
ZNG1A (Zn regulated GTPase metalloprotein activator 1A)	0.99	0.89	0.9
BCR (BCR activator of RhoGEF and GTPase)	0.97	0.66	0.68
DIP2B (DIP2 acetate--CoA ligase B (putative))	0.8	0.44	0.55
UBR7 (ubiquitin protein ligase E3 component n-recognin 7)	0.91	0.95	1.04
C8B (complement C8 beta chain)	0.99	0.73	0.74
RREB1 (ras responsive element binding protein 1)	0.91	0.6	0.66
SERPINB1 (serpin family B member 1)	1.07	0.96	0.9
ERICH6 (glutamate rich 6)	0.81	0.7	0.86
SP140L (SP140 like nuclear body protein)	0.78	0.62	0.79
SLC25A44	0.72	0.58	0.8
NLRX1 (NLR family member X1)	1.03	0.62	0.6
RNF38 (ring finger protein 38)	1	0.94	0.94
OR4P4 (olfactory receptor family 4 subfamily P member 4)	1.33	1.09	0.82
LINC02915 (long independently transcribed non-coding RNA 2915)	1.21	0.88	0.73
GAGE2C (G antigen 2C)	0.65	0.57	0.88
ASB2 (ankyrin repeat and SOCS box containing 2)	1	0.81	0.81
IMPDH1 (inosine monophosphate dehydrogenase 1)	0.96	0.88	0.92
AURKB (aurora kinase B)	0.8	0.32	0.4
KLC4 (kinesin light chain 4)	0.89	0.78	0.88
CYP51A1 (cytochrome P450 family 51 subfamily A member 1)	0.93	0.56	0.6
TARBP1 (tRNA guanosine 2 -O-methyltransferase TARBP1)	1.11	1	0.9
SPIB (Spi-B transcription factor)	0.84	0.57	0.68
MGAT4A	1.22	1.04	0.85
SLC50A1	0.79	0.6	0.76
ATP10D (ATPase phospholipid transporting 10D (putative))	0.77	0.55	0.71
C6orf136 (chromosome 6 open reading frame 136)	0.98	0.84	0.86
EEFSEC (eukaryotic elongation factor, selenocysteine-tRNA specific)	1.35	1.11	0.82
LGI2 (leucine rich repeat LGI family member 2)	0.87	0.7	0.8
BUD13 (BUD13 spliceosome associated protein)	0.87	0.58	0.67
CCDC59 (coiled-coil domain containing 59)	0.96	0.26	0.27
IKBKG	0.92	0.91	0.99
NDFIP1 (Nedd4 family interacting protein 1)	1.35	0.65	0.48
HTR1B (5-hydroxytryptamine receptor 1B)	0.86	0.93	1.08
EPGN (epithelial mitogen)	1.43	1.16	0.81
R3HDM2 (R3H domain containing 2)	0.89	0.8	0.9
LINC00303 (long independently transcribed non-coding RNA 303)	1.24	0.82	0.66
PSMA5 (proteasome 20S subunit alpha 5)	1.45	0.58	0.4
FH (fumarate hydratase)	1.07	1.18	1.1
DIAPH2 (diaphanous related formin 2)	1.07	0.9	0.84
LTV1 (LTV1 ribosome biogenesis factor)	0.94	0.58	0.62
INTS14 (integrator complex subunit 14)	1.13	0.96	0.85
SLC20A1	1.15	0.86	0.75
HIC1 (HIC ZBTB transcriptional repressor 1)	0.63	0.52	0.82

Individual results from the list.
ANO10 (anoctamin 10), parental viability vs mock (fraction of mock) = 0.66
Entry for CEP43 (centrosomal protein 43) under “parental viability vs mock (fraction of mock)”: 0.86
For “CDH1-null viability vs mock (fraction of mock)”, TARBP1 (tRNA guanosine 2 -O-methyltransferase TARBP1) reads 1
Result of HIC1 (HIC ZBTB transcriptional repressor 1) under “CDH1-null viability vs mock (fraction of mock)”: 0.52
For “CDH1-null / parental viability ratio”, IMPDH1 (inosine monophosphate dehydrogenase 1) is entered as 0.96
FHIP1B (FHF complex subunit HOOK interacting protein 1B), parental viability vs mock (fraction of mock) = 0.59
